Measured values: article doi:10.1101/2021.02.19.432005 (bioRxiv, 2021)
No constants are given. Whether binding was seen depends on the method and setting. Some results given as binding are weak or reduced against the parent protein; the word gives no strength. For some of these results: Where a sequence is shown, tags or fusion partners need not be part of it. Values belong to the binder of their own block, whether it stands above or below them.

The chains behind the UniProt entries cited, without tags or fusion partners. Residues count along the entry.
UniProt Q01705, 828-1058: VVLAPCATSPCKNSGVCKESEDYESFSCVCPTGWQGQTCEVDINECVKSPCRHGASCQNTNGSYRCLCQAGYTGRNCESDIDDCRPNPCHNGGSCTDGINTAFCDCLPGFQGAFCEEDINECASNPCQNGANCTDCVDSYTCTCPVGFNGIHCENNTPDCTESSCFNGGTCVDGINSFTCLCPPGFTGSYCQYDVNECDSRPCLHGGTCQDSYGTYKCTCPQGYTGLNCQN
UniProt Q01705, 294-526: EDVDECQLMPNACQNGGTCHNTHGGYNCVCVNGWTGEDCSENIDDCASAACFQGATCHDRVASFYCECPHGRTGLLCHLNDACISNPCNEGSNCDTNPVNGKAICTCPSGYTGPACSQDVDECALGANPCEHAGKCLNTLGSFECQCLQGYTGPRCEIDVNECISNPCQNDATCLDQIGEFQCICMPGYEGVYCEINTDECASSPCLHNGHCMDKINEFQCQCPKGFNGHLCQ

How the values were obtained:
Assay in all cases: SPR
[1] = target: Jagged1^C2-EGF7, C-terminally biotinylated SPR ligand (mouse) (UniProt Q9QXX0)
[2] = target: Jagged1^C2-EGF13, C-terminally biotinylated SPR ligand (mouse) (UniProt Q9QXX0)
[3] = target: Jagged1^EGF5-CRD, C-terminally biotinylated SPR ligand (mouse) (UniProt Q9QXX0)
[4] = target: Notch1^EGF22-27, C-terminally biotinylated SPR ligand (mouse) (UniProt Q01705)
[5] = target: Jagged1 full ectodomain (Jagged1^fe), C-terminally biotinylated SPR ligand (mouse) (UniProt Q9QXX0)
[6] = target: Jagged1^C2-EGF3,HA, C-terminally biotinylated SPR ligand (mouse) (UniProt Q9QXX0)
[7] = target: Notch1^EGF8-13, C-terminally biotinylated SPR ligand (mouse) (UniProt Q01705)

binding [1]: binds weakly
binding [2]: binds weakly
binding [3]: no binding
binding [4]: no binding
binding [5]: binds weakly
binding [6]: binds weakly
B1: Jagged1^EGF8-11,Fc (Fc-tagged, covalently dimerized) (Fc fusion)
chain: DIDECASNPCLNGGHCQNEINRFQCLCPTGFSGNLCQLDIDYCEPNPCQNGAQCYNRASDYFCKCPEDYEGKNCSHLKDHCRTTTCEVIDSCTVAMASNDTPEGVRYISSNVCGPHGKCKSQSGGKFTCDCNKGFTGTYCHENINDCESNPCKNGGTCIDGVNSYKCICSDGWEGAHCE

binding [1]: binds weakly
binding [2]: binds weakly
binding [3]: no binding
binding [4]: no binding
binding [5]: binds weakly
binding [6]: binds weakly
B2: Jagged1^CRD,Fc (Fc-tagged, covalently dimerized) (Fc fusion)
chain: EVSGRSCITMGRVILDGAKWDDDCNTCQCLNGRVACSKVWCGPRPCRLHKSHNECPSGQSCIPVLDDQCFVRPCTGVGECRSSSLQPVKTKCTSDSYYQDNCANITFTFNKEMMSPGLTTEHICSELRNLNILKNVSAEYSIYIACEPSLSANNEIHVAISAEDIRDDGNPVKEITDKIIDLVSKRDGNSSLIAAVAEVRVQRRPLKNRTD

binding [7]: no binding (tested: 1 µM)
B3: Jagged1 full ectodomain, wild type (Jagged1^fe,wt) (domain or fragment)
chain: ASGQFELEILSMQNVNGELQNGNCCGGVRNPGDRKCTRDECDTYFKVCLKEYQSRVTAGGPCSFGSGSTPVIGGNTFNLKASRGNDRNRIVLPFSFAWPRSYTLLVEAWDSSNDTIQPDSIIEKASHSGMINPSRQWQTLKQNTGIAHFEYQIRVTCDDHYYGFGCNKFCRPRDDFFGHYACDQNGNKTCMEGWMGPDCNKAICRQGCSPKHGSCKLPGDCRCQYGWQGLYCDKCIPHPGCVHGTCNEPWQCLCETNWGGQLCDKDLNYCGTHQPCLNRGTCSNTGPDKYQCSCPEGYSGPNCEIAEHACLSDPCHNRGSCKETSSGFECECSPGWTGPTCSTNIDDCSPNNCSHGGTCQDLVNGFKCVCPPQWTGKTCQLDANECEAKPCVNARSCKNLIASYYCDCLPGWMGQNCDININDCLGQCQNDASCRDLVNGYRCICPPGYAGDHCERDIDECASNPCLNGGHCQNEINRFQCLCPTGFSGNLCQLDIDYCEPNPCQNGAQCYNRASDYFCKCPEDYEGKNCSHLKDHCRTTTCEVIDSCTVAMASNDTPEGVRYISSNVCGPHGKCKSQSGGKFTCDCNKGFTGTYCHENINDCESNPCKNGGTCIDGVNSYKCICSDGWEGAHCENNINDCSQNPCHYGGTCRDLVNDFYCDCKNGWKGKTCHSRDSQCDEATCNNGGTCYDEVDTFKCMCPGGWEGTTCNIARNSSCLPNPCHNGGTCVVNGDSFTCVCKEGWEGPICTQNTNDCSPHPCYNSGTCVDGDNWYRCECAPGFAGPDCRININECQSSPCAFGATCVDEINGYQCICPPGHSGAKCHEVSGRSCITMGRVILDGAKWDDDCNTCQCLNGRVACSKVWCGPRPCRLHKSHNECPSGQSCIPVLDDQCFVRPCTGVGECRSSSLQPVKTKCTSDSYYQDNCANITFTFNKEMMSPGLTTEHICSELRNLNILKNVSAEYSIYIACEPSLSANNEIHVAISAEDIRDDGNPVKEITDKIIDLVSKRDGNSSLIAAVAEVRVQRRPLKNRTD
